Results are given in words; binding and its absence hold for the method and conditions named. Binding seen in cells or lysates may run through a third protein. Some entries that bind do so weakly or less than the wild type.
Experiments:
[1] = target: FENMIT.F (FLAG-tagged truncated FEN1 starting at M65) (human) (UniProt P39748); test: co-IP; lysate of purified mitochondria from FENMIT.F-expressing HEK cells treated with ethidium bromide (100 ng/ml, 72 h); anti-FLAG M2 agarose beads, elution with Flag peptide; with or without RNase T1 (1000 units; 10 mM Tris pH 7.4, 5 mM EDTA, 300 mM NaCl); immunoblot of TFAM
[2] = target: FENMIT.F (FLAG-tagged truncated FEN1 starting at M65) (human) (UniProt P39748); test: condition: only cells not treated with ethidium bromide; co-IP; lysate of purified mitochondria from FENMIT.F-expressing HEK cells not treated with ethidium bromide (control); anti-FLAG M2 agarose beads, elution with Flag peptide; immunoblot of TFAM

Chains of the proteins cited; added tags and fusions are not shown. Residues count along the entry.
UniProt P39748, residues 65-380: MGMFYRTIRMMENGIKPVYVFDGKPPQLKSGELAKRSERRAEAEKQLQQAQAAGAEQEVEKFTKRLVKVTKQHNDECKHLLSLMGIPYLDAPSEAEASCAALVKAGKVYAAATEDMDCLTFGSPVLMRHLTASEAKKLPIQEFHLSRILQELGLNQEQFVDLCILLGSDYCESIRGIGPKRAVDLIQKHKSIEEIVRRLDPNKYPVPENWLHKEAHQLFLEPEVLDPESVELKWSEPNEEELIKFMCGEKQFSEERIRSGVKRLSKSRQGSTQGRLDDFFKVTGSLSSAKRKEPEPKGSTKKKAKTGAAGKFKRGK

binding [1]: binds weakly
binding [2]: no binding
B1: transcription factor A of mitochondria (TFAM) (protein, UniProt Q00059 43-246)
chain: SSVLASCPKKPVSSYLRFSKEQLPIFKAQNPDAKTTELIRRIAQRWRELPDSKKKIYQDAYRAEWQVYKEEISRFKEQLTPSQIMSLEKEIMDKHLKRKAMTKKKELTLLGKPKRPRSAYNVYVAERFQEAKGDSPQEKLKTVKENWKNLSDSEKELYIQHAKEDETRYHNEMKSWEEQMIEVGRKDLLRRTIKKQRKYGAEEC
